Measurements reported in PubChem BioAssay AID652272 (Drosophila RNAi Screening Center, 2013)

Assay: 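Genome-wide knock-down search for components of Hedgehog signalling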 (primary screen)
Cells: Drosophila clone 8 (Cl8) cells
Reagent: long dsRNA against Drosophila genes
Measured: 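Plate reader light from a firefly reporter under a ptc promoter fragment that responds to Hedgehog, with Renilla light as transfection reference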
Direction: firefly Hh reporter signal: higher = more ptc reporter light; Renilla reference signal: higher = more Renilla control light
Call rule: 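Hit when the z-score averaged over two replicates is under -2 or over +3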
Calls: active = hit: reporter lowered or raised; inactive = not a hit
In all, the deposit lists about 21,000 reagents; shown is a random part of those with a known target gene and a result. In the full data, 503 (2.4%) are marked active. 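Raw plate light values, not normalised; calls rest on replicate z-scores that were not deposited; hits include reporter decreases as well as increases.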 Entries without a mark were called inactive. Names joined by + are all predicted targets of the reagent. Not given: the amount of reagent, the time to read-out.

| target gene | dsRNA | firefly Hh reporter signal, replicate 1 | firefly Hh reporter signal, replicate 2 | firefly Hh reporter signal, replicate 3 | Renilla reference signal, replicate 1 | Renilla reference signal, replicate 2 |
| --- | --- | --- | --- | --- | --- | --- |
| ckd | DRSC08418 | 1.29e5 | 74145 | – | 4701 | 5440 |
| AstA-R1 | DRSC17278 | 4.80e5 | 2.83e5 | – | 21049 | 5816 |
| AstA-R1 | DRSC17727 | 97045 | 3.17e5 | – | 2338 | 12145 |
| Glyp | DRSC00752 | 4.97e5 | 1.16e5 | – | 5813 | 5813 |
| lbm | DRSC07643 | 75538 | 45848 | – | 1929 | 4361 |
| GstE13 | DRSC06083 | 1.09e5 | 45792 | – | 3575 | 1308 |
| exu | DRSC07615 | 69420 | 64982 | – | 3177 | 2624 |
| CG14692 | DRSC14915 | 65740 | 1.21e5 | – | 1537 | 3504 |
| Nepl14 | DRSC15631 | 4.90e5 | 74561 | – | 23190 | 2059 |
| CG4691 | DRSC01950 | 83984 | 56304 | – | 3654 | 2530 |
| Rgl | DRSC11267 | 58443 | 54325 | 31239 | 4540 | 1345 |
| mxt | DRSC00551 | 58540 | 76848 | – | 3081 | 3112 |
| link | DRSC06368 | 46312 (active) | 32001 | – | 1787 | 3233 |
| CG11192 | DRSC06057 | 71024 | 41532 | – | 1268 | 2010 |
| CG30377 | DRSC06477 | 36300 | 34613 | – | 1792 | 1762 |
| CG30377 | DRSC06799 | 60160 | 26459 | – | 1805 | 2672 |
| CG30060 | DRSC05419 | 1.22e5 | 2.15e5 | – | 3080 | 9090 |
| nanos | DRSC17018 | 4.52e5 | 54808 | – | 21509 | 1403 |
| CG8202 | DRSC16396 | 92886 | 1.56e5 | – | 3788 | 8643 |
| dpr5 | DRSC15766 | 74346 | 1.35e5 | – | 2581 | 2880 |
| sds22 | DRSC17052 | 85178 | 85142 | – | 2252 | 2124 |
| CG9877 | DRSC04587 | 1.45e5 | 84325 | – | 3595 | 7298 |
| CG1463 | DRSC19603 | 1.03e5 | 81927 | – | 2551 | 1927 |
| Bet5 | DRSC14600 | 96208 | 1.08e5 | – | 2612 | 3239 |
| CG32845 | DRSC07867 | 94790 | 2.34e5 | – | 2794 | 9923 |
| CG6996 | DRSC10758 | 1.05e5 | 1.37e5 | – | 2338 | 3989 |
| Ctns | DRSC15175 | 5.43e5 | 85259 | – | 26528 | 2761 |
| CG1695 | DRSC20538 | 87716 | 2.70e5 | – | 2055 | 11122 |
| Wnt6 | DRSC02795 | 1.76e5 | 81320 | – | 5313 | 7321 |
| CG9302 | DRSC03191 | 5.81e5 | 1.00e5 | – | 3830 | 3830 |
| PK1-R | DRSC16577 | 76288 | 1.04e5 | – | 1490 | 2396 |
| neur + asRNA:CR31429 | DRSC17013 | 97317 | 98938 | – | 3628 | 3687 |
| Poxn | DRSC05589 | 1.46e5 | 3.81e5 | – | 3917 | 15891 |
| Poxn | DRSC07512 | 78273 | 68064 | – | 779 | 4369 |
| CG32017 | DRSC17183 | 4.43e5 | 1.71e5 | – | 22928 | 3993 |
| Fkbp59 | DRSC03323 | 75142 | 55412 | – | 2172 | 6137 |
| lncRNA:CR32027 | DRSC09571 | 2.86e5 | – | – | 6082 | – |
| Drs | DRSC08657 | 1.03e5 | 61392 | – | 3386 | 4613 |
| CG8206 | DRSC20093 | 95130 | 54390 | – | 2072 | 1170 |
| CG17350 | DRSC02611 | 90464 | 54877 | – | 2278 | 5024 |
| pot | DRSC19850 | 87591 | 77512 | – | 2000 | 1834 |
| Pig1 | DRSC18698 | 1.24e5 | 1.69e5 | – | 3302 | 4810 |
| Dg | DRSC06718 | 82960 | 78699 | – | 2192 | 4896 |
| Ptp61F | DRSC08683 | 65881 | 29848 | – | 2476 | 2576 |
| Obp28a | DRSC03394 | 1.84e5 | 65575 | – | 4061 | 7145 |
| Cpr92F | DRSC15819 | 6.26e5 | 1.16e5 | – | 34417 | 3493 |
| beg | DRSC10923 | 75744 | 70064 | – | 3322 | 2761 |
| mRpL32 | DRSC14479 | 1.04e5 | 87981 | – | 3555 | 1777 |
| Snx1 | DRSC00531 | 95169 | 81824 | – | 2049 | 6458 |
| neo | DRSC16316 | 99479 | 87553 | – | 2384 | 2400 |
| CG11843 | DRSC14401 | 1.30e5 | 1.01e5 | – | 4854 | 2305 |
| tio | DRSC03739 | 83484 | 54346 | – | 2288 | 4109 |
| MESR4 | DRSC06901 | 61527 (active) | 47653 | – | 1237 | 2181 |
| CG2127 | DRSC06821 | 97351 | 55420 | – | 2505 | 5121 |
| CG13126 | DRSC02222 | 75264 | 36259 | – | 1782 | 3461 |
| Sting | DRSC06615 | 1.42e5 | 59778 | – | 3110 | 3958 |
| Nca | DRSC11233 | 1.45e5 | 2.23e5 | – | 4418 | 5864 |

Reagents listed above with an active call:
| target gene | dsRNA | firefly Hh reporter signal, replicate 1 | firefly Hh reporter signal, replicate 2 | firefly Hh reporter signal, replicate 3 | Renilla reference signal, replicate 1 | Renilla reference signal, replicate 2 |
| --- | --- | --- | --- | --- | --- | --- |
| link | DRSC06368 | 46312 (active) | 32001 | – | 1787 | 3233 |
| MESR4 | DRSC06901 | 61527 (active) | 47653 | – | 1237 | 2181 |
